# Among all 360,000 compounds or so, about 1,700 (0.47%) were called active. This list was built around the results that the source calls inconclusive (neither active nor inactive); the mix of calls is not that of the screen. The call rests on the fitted dose curve; in most records, active means well fitted inhibition curve with a large enough effect; inconclusive means small, poorly fitted or top-dose-only effect; inactive means no such curve, though single readings can be large or run the other way. A potency beside an inconclusive call is a rough fit, not a confirmed value.
# Protein sequences, listed by entry. Tags and fused reporters are not part of them.
# UniProt Q14191, whole entry, looked up: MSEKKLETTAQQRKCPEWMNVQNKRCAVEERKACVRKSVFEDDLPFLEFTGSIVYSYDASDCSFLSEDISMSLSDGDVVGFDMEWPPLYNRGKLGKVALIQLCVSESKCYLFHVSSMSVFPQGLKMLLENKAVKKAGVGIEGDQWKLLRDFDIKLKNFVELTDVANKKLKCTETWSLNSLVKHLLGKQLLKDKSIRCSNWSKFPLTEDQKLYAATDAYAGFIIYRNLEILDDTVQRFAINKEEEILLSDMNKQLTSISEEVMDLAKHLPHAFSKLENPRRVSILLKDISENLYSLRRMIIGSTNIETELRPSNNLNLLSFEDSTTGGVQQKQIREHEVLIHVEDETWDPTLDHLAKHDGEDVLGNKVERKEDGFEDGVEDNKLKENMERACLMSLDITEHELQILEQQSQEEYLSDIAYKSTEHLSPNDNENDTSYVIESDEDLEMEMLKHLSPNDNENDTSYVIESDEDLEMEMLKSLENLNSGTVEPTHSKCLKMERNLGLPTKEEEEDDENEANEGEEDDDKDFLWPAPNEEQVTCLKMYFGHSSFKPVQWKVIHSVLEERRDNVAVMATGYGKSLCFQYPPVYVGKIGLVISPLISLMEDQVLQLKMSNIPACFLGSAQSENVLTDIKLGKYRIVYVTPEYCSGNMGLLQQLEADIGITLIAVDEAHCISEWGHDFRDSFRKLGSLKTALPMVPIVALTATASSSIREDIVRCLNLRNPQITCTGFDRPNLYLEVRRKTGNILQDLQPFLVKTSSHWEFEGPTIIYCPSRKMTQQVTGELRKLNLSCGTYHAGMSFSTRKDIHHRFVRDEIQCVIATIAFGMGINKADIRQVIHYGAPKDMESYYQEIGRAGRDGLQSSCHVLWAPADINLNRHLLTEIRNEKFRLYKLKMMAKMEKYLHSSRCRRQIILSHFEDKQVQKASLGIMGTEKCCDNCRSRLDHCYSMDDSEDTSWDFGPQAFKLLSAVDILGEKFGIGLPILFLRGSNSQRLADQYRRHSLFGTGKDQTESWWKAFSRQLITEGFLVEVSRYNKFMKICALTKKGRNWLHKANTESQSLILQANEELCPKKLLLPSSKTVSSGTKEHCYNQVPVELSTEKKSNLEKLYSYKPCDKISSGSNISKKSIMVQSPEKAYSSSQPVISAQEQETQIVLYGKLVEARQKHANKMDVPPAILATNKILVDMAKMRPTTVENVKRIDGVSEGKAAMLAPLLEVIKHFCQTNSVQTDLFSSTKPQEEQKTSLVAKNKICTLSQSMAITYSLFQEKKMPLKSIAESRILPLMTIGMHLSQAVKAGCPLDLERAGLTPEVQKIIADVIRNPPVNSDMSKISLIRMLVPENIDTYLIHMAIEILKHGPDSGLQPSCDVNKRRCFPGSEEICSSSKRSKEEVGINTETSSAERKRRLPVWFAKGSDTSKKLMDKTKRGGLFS
# Target: Bifunctional 3'-5' exonuclease/ATP-dependent helicase WRN (Homo sapiens) (UniProt Q14191)
# Test: qHTS for Inhibitors of WRN Helicase; further: nearly all actives have a fitted effect of over 55% in size
# Conditions: WRN helicase unwinding, fluorescent forked duplex, kinetic; activity change, negative = inhibition: at 114 µM (top of the series) unless noted
# Method in brief: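 Enzyme (20 nM final) and test compound sit together 15 min at room temperature before substrate addition. Substrate is a single-forked duplex oligonucleotide (100 nM) labelled with fluorophore and quencher, with 2 mM ATP; helicase unwinding raises red fluorescence, read kinetically.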
# On the % scale 0 is the no-effect control and ±100 the full control effect; potency means the concentration at half of the fitted maximal effect.
SMILES,Potency,"activity change, negative = inhibition"
CCCN(CCC)CC(O)CN(c1cc([N+](=O)[O-])ccc1OC)S(=O)(=O)c1ccccc1 (stereo not given),inactive,–
COCC(C)OC(=O)/C(C#N)=C\c1coc2ccc(C)cc2c1=O (stereo not given),"inconclusive: 56.2 µM [inhibitor, partial curve]",–
CC(=O)Nc1ccc(S(=O)(=O)Nc2nc3ccccc3nc2-n2ccc(=NC(=O)c3ccccc3)cc2)cc1,"inconclusive: 6.31 µM [inhibitor, full curve, poor fit]",–
O=C(O)CCCCCNC(=O)CCn1cnc2ccccc2c1=O,inactive,–
CC(C)=C1C(=O)NN(c2ccc(F)c(Cl)c2)C1=O,"inconclusive: 79.4 µM [inhibitor, partial curve]",–
C/C(CCc1ccc2c(c1)OCO2)=N\NC(=O)c1ccccc1Br,inactive,–
Cc1ccc(C)c(S(=O)(=O)NCCCc2ccccc2)c1,"inconclusive: 89.1 µM [inhibitor, single point]",–
Cc1ccc(C(=O)Nc2ccc(C)c(S(=O)(=O)Nc3ccccc3Cl)c2)s1,"inconclusive: 14.1 µM [inhibitor, partial curve]",–
Cc1ccc(S(=O)(=O)NNc2ccccc2)c(C)c1,active: 50.1 µM,–
CCCCC(CCC(=O)Nc1cc([N+](=O)[O-])ccc1O)C(=O)O (stereo not given),"inconclusive: 35.5 µM [inhibitor, single point]",–
COC(=O)C1=C(CSc2nc3c(cc2C#N)CN(C)CC3)OC(N)=C(C#N)C1c1ccc(F)cc1 (stereo not given),"inconclusive: 39.8 µM [inhibitor, partial curve]",–
CCCc1cc(=O)oc2cc(OCC(=O)Nc3cc(C)on3)ccc12,inactive,–
Cc1nnc(NC(=O)c2cc(-c3ccncc3)nc3c(C)cccc23)s1,inactive,–
Cc1ccc(OCC(=O)N2CCC(N3CC(C)CC(C)C3)CC2)cc1 (stereo not given),"inconclusive: 89.1 µM [inhibitor, single point]",–
NC(=O)NC(=O)C[n+]1cccc(/C=N/O)c1,"inconclusive: 31.6 µM [inhibitor, single point]",–
Cc1cc(/C=C2\SC(=S)NC2=O)c(C)n1-c1ccc(O)cc1,"inconclusive: 56.2 µM [inhibitor, partial curve]",–
CCOC(=O)c1c(NC(=O)COC(=O)CCCOc2ccc(OC)cc2)sc(C(=O)N(C)C)c1C,"inconclusive: 15.8 µM [inhibitor, single point]",–
C[C@@H]1C(=O)O[C@H]2CC34[C@H]5C[C@@H](C(C)(C)C)[C@]36[C@@H](OC(=O)[C@@H]6O)O[C@@]4(C(=O)O5)[C@]21O (stereo not given in full),inactive,–
CCc1[nH]c(=O)c(C#N)c2c1CCCC2,inactive,–
O=C(O)c1nccnc1C(=O)Nc1ccccc1-c1ccccc1,inactive,–
Cc1ccc(S(=O)(=O)N(C)C)cc1NC(=O)c1cc(-c2ccco2)nc2ccccc12,"inconclusive: 56.2 µM [inhibitor, partial curve]",–
CC(C(=O)Nc1ccc(C(F)(F)F)cc1)N(C)CC(=O)N1CCN(Cc2ccccc2)CC1 (stereo not given),"inconclusive: 17.8 µM [inhibitor, full curve]",–
O=C(CN1CCN(S(=O)(=O)c2ccccc2F)CC1)N1CCc2ccccc2C1,"inconclusive: 20 µM [inhibitor, full curve]",–
N#CN=C1SCCS1,"inconclusive: 89.1 µM [inhibitor, single point]",–
O=C(Nc1n[nH]c(=S)s1)c1ccc2ccccc2c1,inactive,–

SMILES,Potency,"activity change, negative = inhibition"
COC(=O)CC1C(=O)NCCN1C(=S)Nc1ccccc1 (stereo not given),inactive,–
CC(=O)c1cc(-c2ccc(F)cc2)n(CCC(=O)Nc2cccc(C)n2)c1C,inactive,–
CCOC(=O)C1CCN(C(=O)Nc2ccc3nc(-c4ccco4)c(-c4ccco4)nc3c2)CC1,active: 35.5 µM,–
O=C(COC(=O)c1ccc(Br)o1)Nc1ncc([N+](=O)[O-])s1,"inconclusive: 31.6 µM [inhibitor, partial curve]",–
CCCCN(C(=O)c1ccccc1Br)C1CCS(=O)(=O)C1 (stereo not given),inactive,–
COc1cc(/C=N/N2C(=O)CSC2=S)ccc1O,"inconclusive: 56.2 µM [inhibitor, partial curve]",–
CCN1Cc2c(cc(OC)c(OC)c2OC)-c2ccccc2S1(=O)=O,inactive,–
COc1ccc(/C=C/C(=O)Nn2cnnc2)cc1,"inconclusive: 28.2 µM [inhibitor, partial curve]",–
CCCCCCCCOC(=O)c1cc([N+](=O)[O-])c(Sc2ncnc3nc[nH]c23)c([N+](=O)[O-])c1,"inconclusive: 15.8 µM [inhibitor, full curve]",–
O=C(CSc1nccn1-c1ccccc1)c1ccc(Cl)cc1,inactive,–
O=C(NC(=S)NNS(=O)(=O)c1ccccc1)c1cccnc1,inactive,–
O=S(=O)(Cc1noc(-c2ccc(Cl)cc2)n1)Cc1ccco1,inactive,–
Fc1ccc(/C=N/NC(=S)NCCc2ccccc2)cc1F,"inconclusive: 89.1 µM [inhibitor, single point]",–
COc1ccc(OC)c(NC(=O)CCNS(=O)(=O)c2ccc3[nH]c(=O)oc3c2)c1,–,inactive: 3.1% [at 11.6 µM]
COc1ccc(/C=N/NC(=O)c2ccccc2OC)cc1COc1ccccc1[N+](=O)[O-],"inconclusive: 35.5 µM [inhibitor, full curve]",–
CCc1nnc(NC(=O)c2cc(-c3ccc(C)o3)nc3ccccc23)s1,"inconclusive: 31.6 µM [inhibitor, partial curve]",–
CCOC(=O)c1cc(CC)sc1/N=C/c1c(O)ccc2ccccc12,"inconclusive: 56.2 µM [inhibitor, partial curve]",–
Nc1c(Br)cc(Br)c2c1-c1ccc([N+](=O)[O-])cc1C2,"inconclusive: 15.8 µM [inhibitor, partial curve]",–
O=C(C[n+]1cc(Br)cc(Br)c1)c1cccc([N+](=O)[O-])c1,"inconclusive: 17.8 µM [inhibitor, single point]",–
Cc1ccc(N/N=C2\CS(=O)(=O)N(C)c3ccsc32)cc1,"inconclusive: 44.7 µM [inhibitor, partial curve]",–
COc1ccc(OC)c(NC(=O)CSc2nncc(=O)n2N)c1,"inconclusive: 31.6 µM [inhibitor, full curve, poor fit]",–
CCN(CC)c1ccc(-c2nn3c(-c4n[nH]c5c4CCC5)nnc3s2)cc1,"inconclusive: 79.4 µM [inhibitor, partial curve]",–
Cc1ccc(Nc2nnns2)cc1C,inactive,–
CCN1CC2([N+](=O)[O-])CC=C(OC)C([N+](=O)[O-])(C1)C2 (stereo not given),inactive,–
NC(=O)Cn1nnc(-c2ccc(NC(=O)c3ccc(F)cc3)cc2)n1,inactive,–

SMILES,Potency,"activity change, negative = inhibition"
COCCNC(=O)C(c1ccco1)N(C(=O)Cn1nnc2ccccc21)c1ccccc1C (stereo not given),inactive,–
CCn1c(=O)c(-[n+]2ccccc2)c(O)c2ccccc21,inactive,–
Cn1c(O)c(N=NC(=O)c2ccccc2O)c2ccccc21,inactive,–
COC(=O)c1ccc(N2NC(=O)/C(=C/c3ccc(-c4ccc(Cl)c(C(=O)O)c4)o3)C2=O)cc1,active: 35.5 µM,–
CC(Sc1nc2sc3c(c2c(=O)n1-c1ccccc1)CCCC3)C(=O)O (stereo not given),inactive,–
Cc1cc(=O)oc(C)c1C(=O)NNC(=O)C1(C)CC1Br (stereo not given),inactive,–
COc1ccc(NC(=O)C2Cc3ccccc3CN2C(=O)c2ccco2)cc1 (stereo not given),inactive,–
Cn1c(/N=C/c2c(O)ccc3ccccc23)nc2ccccc21,active: 44.7 µM,–
O=C(CSc1nnc(SCc2ccc(Cl)cc2)s1)N/N=C/c1c[nH]c2ccccc12,"inconclusive: 31.6 µM [inhibitor, full curve]",–
CCC1c2ccccc2C(=O)C1C(N)=O (stereo not given),inactive,–
CCOC(=O)C1=C(O)c2ccccc2C(=O)/C1=C\c1ccc(C)cc1,active: 44.7 µM,–
Cc1c(O)nc(SCC(=O)Nc2ccc3c4c(cccc24)CC3)n(-c2ccc(F)cc2)c1=O,"inconclusive: 20 µM [inhibitor, full curve, poor fit]",–
Cc1ccc(OCC(=O)N/N=C\c2ccc(C)o2)c(C)c1,inactive,–
COc1ccc(C(=O)N(C)c2c(C)n(C)n(-c3ccccc3)c2=O)cc1OC,inactive,–
N#C/C(=C\c1ccc(-c2ccccc2C(=O)O)o1)c1nc2ccccc2[nH]1,active: 56.2 µM,–
Cc1ccc(N2CCN(C(=O)c3cc(COc4c(C)cccc4C)on3)CC2)c(C)c1,"inconclusive: 22.4 µM [inhibitor, partial curve]",–
COc1ccc(S(=O)(=O)N2CCN(CC(=O)N3c4ccccc4CC3C)CC2)cc1OC (stereo not given),inactive,–
COc1cc(C=NNc2ccc(S(=O)(=O)Nc3ccccc3C(=O)O)cc2[N+](=O)[O-])ccc1O,active: 79.4 µM,–
O=C(c1cccnc1)N1C2C=CC(C2)C1(C(F)(F)F)C(F)(F)F (stereo not given),–,inconclusive: -37.4% [inhibitor] [at 57.1 µM]
O=C1NN(c2ccccc2)C(=O)/C1=C/c1ccc(-c2ccc(C(=O)O)cc2)o1,active: 50.1 µM,–
Cc1ccc(N2NC(=O)/C(=C/C=C/c3ccco3)C2=O)cc1C,"inconclusive: 63.1 µM [inhibitor, partial curve, poor fit]",–
C=C(C)CNC(=S)N=Nc1c(O)[nH]c2ccc([N+](=O)[O-])cc12,"inconclusive: 79.4 µM [inhibitor, partial curve]",–
NC(=O)c1ccccc1NCC(=O)c1ccc(F)cc1,"inconclusive: 89.1 µM [inhibitor, single point]",–
CCS(=O)(=O)c1ccc2oc(=O)c(/C=C(\O)c3ccc(Cl)cc3)nc2c1,"inconclusive: 89.1 µM [inhibitor, single point]",–
O=C1CC(=O)N2N=C(c3ccc([N+](=O)[O-])cc3)SC2=N1,"inconclusive: 4.47 µM [inhibitor, full curve, poor fit]",–

# Laid out differently: results already given.
SMILES | Potency | activity change, negative = inhibition
COC(=O)c1ccc(N2NC(=O)/C(=C/c3ccc(-c4ccc(Cl)c(C(=O)O)c4)o3)C2=O)cc1 | active: 35.5 µM | –
CC(Sc1nc2sc3c(c2c(=O)n1-c1ccccc1)CCCC3)C(=O)O (stereo not given) | inactive | –
Cc1cc(=O)oc(C)c1C(=O)NNC(=O)C1(C)CC1Br (stereo not given) | inactive | –
COc1ccc(NC(=O)C2Cc3ccccc3CN2C(=O)c2ccco2)cc1 (stereo not given) | inactive | –
Cn1c(/N=C/c2c(O)ccc3ccccc23)nc2ccccc21 | active: 44.7 µM | –
O=C(CSc1nnc(SCc2ccc(Cl)cc2)s1)N/N=C/c1c[nH]c2ccccc12 | inconclusive: 31.6 µM [inhibitor, full curve] | –
CCC1c2ccccc2C(=O)C1C(N)=O (stereo not given) | inactive | –
CCOC(=O)C1=C(O)c2ccccc2C(=O)/C1=C\c1ccc(C)cc1 | active: 44.7 µM | –
Cc1c(O)nc(SCC(=O)Nc2ccc3c4c(cccc24)CC3)n(-c2ccc(F)cc2)c1=O | inconclusive: 20 µM [inhibitor, full curve, poor fit] | –
Cc1ccc(OCC(=O)N/N=C\c2ccc(C)o2)c(C)c1 | inactive | –
COc1ccc(C(=O)N(C)c2c(C)n(C)n(-c3ccccc3)c2=O)cc1OC | inactive | –
N#C/C(=C\c1ccc(-c2ccccc2C(=O)O)o1)c1nc2ccccc2[nH]1 | active: 56.2 µM | –
Cc1ccc(N2CCN(C(=O)c3cc(COc4c(C)cccc4C)on3)CC2)c(C)c1 | inconclusive: 22.4 µM [inhibitor, partial curve] | –
COc1ccc(S(=O)(=O)N2CCN(CC(=O)N3c4ccccc4CC3C)CC2)cc1OC (stereo not given) | inactive | –
COc1cc(C=NNc2ccc(S(=O)(=O)Nc3ccccc3C(=O)O)cc2[N+](=O)[O-])ccc1O | active: 79.4 µM | –
O=C(c1cccnc1)N1C2C=CC(C2)C1(C(F)(F)F)C(F)(F)F (stereo not given) | – | inconclusive: -37.4% [inhibitor] [at 57.1 µM]
O=C1NN(c2ccccc2)C(=O)/C1=C/c1ccc(-c2ccc(C(=O)O)cc2)o1 | active: 50.1 µM | –
Cc1ccc(N2NC(=O)/C(=C/C=C/c3ccco3)C2=O)cc1C | inconclusive: 63.1 µM [inhibitor, partial curve, poor fit] | –
C=C(C)CNC(=S)N=Nc1c(O)[nH]c2ccc([N+](=O)[O-])cc12 | inconclusive: 79.4 µM [inhibitor, partial curve] | –
NC(=O)c1ccccc1NCC(=O)c1ccc(F)cc1 | inconclusive: 89.1 µM [inhibitor, single point] | –

# From PubChem BioAssay AID651768 (National Center for Advancing Translational Sciences (NCATS), 2012)
